# The list shows a part of the results.
# By UniProt entry, the sequences of proteins in these tests, tags left out. Where a name states a change or a piece, a line headed by the entry shows the natural chain unless it says otherwise.
# UniProt Q8IYQ7: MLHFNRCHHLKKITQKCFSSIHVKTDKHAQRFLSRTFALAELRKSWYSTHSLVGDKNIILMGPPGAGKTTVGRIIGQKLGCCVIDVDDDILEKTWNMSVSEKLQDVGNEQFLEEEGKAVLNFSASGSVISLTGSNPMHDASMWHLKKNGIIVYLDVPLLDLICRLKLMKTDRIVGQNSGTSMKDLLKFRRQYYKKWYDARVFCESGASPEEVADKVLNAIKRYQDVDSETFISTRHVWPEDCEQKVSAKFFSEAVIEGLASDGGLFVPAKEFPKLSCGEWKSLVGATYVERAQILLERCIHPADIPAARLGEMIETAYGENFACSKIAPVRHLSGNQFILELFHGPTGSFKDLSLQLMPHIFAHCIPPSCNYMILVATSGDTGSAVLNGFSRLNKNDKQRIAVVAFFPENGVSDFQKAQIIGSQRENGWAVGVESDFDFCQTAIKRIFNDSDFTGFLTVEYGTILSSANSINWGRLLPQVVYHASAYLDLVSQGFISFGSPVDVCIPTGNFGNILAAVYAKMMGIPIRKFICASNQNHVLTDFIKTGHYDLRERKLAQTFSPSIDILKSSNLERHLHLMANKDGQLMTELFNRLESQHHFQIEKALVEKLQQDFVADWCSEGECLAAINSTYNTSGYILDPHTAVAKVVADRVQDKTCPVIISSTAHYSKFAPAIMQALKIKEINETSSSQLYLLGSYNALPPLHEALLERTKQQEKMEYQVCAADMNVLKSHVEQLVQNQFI
# UniProt Q8NI27: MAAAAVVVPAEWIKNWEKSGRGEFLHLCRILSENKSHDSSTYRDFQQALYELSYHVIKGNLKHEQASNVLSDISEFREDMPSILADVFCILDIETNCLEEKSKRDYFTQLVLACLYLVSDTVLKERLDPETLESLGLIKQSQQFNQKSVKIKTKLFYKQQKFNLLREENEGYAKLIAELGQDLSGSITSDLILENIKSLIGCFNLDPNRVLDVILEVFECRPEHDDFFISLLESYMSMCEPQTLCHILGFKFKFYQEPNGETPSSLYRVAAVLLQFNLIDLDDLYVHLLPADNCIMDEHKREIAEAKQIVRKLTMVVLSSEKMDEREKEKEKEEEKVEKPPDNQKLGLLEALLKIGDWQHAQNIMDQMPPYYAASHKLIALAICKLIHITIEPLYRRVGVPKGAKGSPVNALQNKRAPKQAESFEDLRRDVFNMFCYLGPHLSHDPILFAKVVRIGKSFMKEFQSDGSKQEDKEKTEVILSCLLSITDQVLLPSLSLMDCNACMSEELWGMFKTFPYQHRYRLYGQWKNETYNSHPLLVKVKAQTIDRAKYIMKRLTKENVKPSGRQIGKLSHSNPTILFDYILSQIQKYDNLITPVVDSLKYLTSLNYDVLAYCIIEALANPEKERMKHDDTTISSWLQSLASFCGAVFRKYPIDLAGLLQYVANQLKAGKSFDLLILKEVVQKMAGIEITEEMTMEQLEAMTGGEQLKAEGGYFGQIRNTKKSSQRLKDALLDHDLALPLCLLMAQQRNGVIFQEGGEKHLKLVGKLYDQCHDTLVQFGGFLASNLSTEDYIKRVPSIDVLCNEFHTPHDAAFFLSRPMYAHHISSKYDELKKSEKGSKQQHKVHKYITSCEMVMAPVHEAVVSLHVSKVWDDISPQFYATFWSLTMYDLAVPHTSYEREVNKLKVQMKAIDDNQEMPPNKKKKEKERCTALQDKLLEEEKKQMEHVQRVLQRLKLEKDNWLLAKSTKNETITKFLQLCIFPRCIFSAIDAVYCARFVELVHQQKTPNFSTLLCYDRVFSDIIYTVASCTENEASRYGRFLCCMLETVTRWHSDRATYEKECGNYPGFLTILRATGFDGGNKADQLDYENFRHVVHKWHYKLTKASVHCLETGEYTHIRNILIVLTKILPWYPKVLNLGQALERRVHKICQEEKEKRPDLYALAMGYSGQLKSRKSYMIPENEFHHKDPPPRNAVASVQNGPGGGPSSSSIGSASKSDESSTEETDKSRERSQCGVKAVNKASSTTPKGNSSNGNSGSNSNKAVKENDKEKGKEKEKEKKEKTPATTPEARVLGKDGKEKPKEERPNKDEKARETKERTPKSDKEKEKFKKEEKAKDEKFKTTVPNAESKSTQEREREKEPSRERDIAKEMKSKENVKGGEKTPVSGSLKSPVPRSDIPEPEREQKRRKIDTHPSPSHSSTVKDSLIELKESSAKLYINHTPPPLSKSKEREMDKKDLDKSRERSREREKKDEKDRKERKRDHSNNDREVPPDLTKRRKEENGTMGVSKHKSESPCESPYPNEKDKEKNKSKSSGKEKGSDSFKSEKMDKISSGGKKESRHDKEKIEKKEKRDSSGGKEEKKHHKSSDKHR
# UniProt Q5T1C6: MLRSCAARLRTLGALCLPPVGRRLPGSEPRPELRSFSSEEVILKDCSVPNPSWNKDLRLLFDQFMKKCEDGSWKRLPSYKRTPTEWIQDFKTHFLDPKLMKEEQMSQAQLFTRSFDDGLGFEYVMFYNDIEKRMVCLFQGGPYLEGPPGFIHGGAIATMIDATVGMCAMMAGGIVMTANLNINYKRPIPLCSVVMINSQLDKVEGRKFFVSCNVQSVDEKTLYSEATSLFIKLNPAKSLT
# UniProt Q99595: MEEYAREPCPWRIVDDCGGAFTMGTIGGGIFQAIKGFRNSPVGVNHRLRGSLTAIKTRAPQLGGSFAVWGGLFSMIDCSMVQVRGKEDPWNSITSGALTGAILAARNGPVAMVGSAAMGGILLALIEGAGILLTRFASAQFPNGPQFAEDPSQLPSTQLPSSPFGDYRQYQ
# UniProt Q9NX00: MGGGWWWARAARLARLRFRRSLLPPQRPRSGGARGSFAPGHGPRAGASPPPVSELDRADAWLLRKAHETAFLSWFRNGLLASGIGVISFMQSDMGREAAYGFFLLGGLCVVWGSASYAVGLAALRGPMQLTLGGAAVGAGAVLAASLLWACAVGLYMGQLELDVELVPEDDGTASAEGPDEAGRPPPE
# UniProt Q9Y2S6, whole entry, looked up: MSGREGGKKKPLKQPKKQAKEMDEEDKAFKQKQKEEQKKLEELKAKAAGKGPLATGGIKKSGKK
# UniProt Q08117: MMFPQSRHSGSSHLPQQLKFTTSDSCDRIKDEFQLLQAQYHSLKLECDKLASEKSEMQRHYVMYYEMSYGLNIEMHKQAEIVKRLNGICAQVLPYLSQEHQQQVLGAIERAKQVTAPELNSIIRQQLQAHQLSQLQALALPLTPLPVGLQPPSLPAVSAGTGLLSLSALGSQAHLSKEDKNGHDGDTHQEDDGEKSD
# UniProt Q9P016: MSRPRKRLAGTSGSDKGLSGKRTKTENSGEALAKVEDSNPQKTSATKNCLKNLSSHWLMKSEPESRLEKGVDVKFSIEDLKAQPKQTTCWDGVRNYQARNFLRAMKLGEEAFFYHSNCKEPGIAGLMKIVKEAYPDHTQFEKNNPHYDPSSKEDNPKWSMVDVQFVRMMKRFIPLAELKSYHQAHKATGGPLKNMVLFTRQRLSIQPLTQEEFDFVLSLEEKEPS
# UniProt Q96B77: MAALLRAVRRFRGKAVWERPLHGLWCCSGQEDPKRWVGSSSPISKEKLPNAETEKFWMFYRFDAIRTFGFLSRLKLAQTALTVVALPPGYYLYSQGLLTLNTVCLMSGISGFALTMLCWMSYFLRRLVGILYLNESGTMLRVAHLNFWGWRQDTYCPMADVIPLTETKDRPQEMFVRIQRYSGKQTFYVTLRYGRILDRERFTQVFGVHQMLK
# UniProt Q96MV1: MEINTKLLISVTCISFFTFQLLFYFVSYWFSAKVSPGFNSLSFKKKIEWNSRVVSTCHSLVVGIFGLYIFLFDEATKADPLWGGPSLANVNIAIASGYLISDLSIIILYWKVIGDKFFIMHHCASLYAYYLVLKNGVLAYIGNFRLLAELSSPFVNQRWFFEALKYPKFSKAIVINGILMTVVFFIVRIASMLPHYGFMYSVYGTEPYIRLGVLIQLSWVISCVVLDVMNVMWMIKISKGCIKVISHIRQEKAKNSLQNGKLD
# UniProt Q13769: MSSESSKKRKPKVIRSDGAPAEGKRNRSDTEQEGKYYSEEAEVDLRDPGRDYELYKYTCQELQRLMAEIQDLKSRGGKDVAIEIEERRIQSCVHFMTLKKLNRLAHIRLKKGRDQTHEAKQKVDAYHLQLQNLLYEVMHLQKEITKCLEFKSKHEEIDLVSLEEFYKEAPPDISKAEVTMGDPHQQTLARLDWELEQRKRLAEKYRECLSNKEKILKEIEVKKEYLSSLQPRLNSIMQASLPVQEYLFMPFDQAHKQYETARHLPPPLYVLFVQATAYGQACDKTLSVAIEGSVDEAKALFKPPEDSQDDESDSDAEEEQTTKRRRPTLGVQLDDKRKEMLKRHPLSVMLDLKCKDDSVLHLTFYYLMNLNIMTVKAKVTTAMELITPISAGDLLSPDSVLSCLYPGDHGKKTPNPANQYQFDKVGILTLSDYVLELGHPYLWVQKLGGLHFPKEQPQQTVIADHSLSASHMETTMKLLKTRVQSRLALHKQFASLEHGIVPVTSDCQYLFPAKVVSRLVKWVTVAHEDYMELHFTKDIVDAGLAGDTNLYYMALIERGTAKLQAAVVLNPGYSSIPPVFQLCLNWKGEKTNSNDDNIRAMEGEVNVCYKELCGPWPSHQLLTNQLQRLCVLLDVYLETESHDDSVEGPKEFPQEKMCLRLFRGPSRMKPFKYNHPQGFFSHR
# UniProt Q8WUH2: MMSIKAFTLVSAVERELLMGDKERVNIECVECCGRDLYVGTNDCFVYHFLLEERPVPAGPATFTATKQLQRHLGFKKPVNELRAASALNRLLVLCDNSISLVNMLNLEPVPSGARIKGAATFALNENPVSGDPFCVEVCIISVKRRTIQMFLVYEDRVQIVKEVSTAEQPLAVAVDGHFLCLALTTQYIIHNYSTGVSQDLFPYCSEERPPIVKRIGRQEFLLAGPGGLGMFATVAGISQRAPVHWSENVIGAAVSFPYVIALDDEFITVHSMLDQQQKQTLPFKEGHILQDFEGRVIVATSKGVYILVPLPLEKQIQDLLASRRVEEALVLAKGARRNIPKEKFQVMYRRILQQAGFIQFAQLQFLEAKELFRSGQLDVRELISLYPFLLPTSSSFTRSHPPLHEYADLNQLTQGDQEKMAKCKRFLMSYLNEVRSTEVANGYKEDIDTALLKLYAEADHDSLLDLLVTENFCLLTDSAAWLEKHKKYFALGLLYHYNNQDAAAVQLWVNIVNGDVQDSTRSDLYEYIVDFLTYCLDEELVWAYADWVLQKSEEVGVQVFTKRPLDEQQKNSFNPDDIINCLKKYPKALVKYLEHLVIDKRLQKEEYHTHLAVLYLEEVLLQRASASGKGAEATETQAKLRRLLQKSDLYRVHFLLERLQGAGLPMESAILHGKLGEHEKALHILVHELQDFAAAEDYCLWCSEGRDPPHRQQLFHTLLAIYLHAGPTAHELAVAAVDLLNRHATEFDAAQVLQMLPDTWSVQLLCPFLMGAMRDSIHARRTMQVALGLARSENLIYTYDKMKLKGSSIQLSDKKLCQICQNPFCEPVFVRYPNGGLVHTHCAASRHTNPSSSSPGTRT
# UniProt Q99805: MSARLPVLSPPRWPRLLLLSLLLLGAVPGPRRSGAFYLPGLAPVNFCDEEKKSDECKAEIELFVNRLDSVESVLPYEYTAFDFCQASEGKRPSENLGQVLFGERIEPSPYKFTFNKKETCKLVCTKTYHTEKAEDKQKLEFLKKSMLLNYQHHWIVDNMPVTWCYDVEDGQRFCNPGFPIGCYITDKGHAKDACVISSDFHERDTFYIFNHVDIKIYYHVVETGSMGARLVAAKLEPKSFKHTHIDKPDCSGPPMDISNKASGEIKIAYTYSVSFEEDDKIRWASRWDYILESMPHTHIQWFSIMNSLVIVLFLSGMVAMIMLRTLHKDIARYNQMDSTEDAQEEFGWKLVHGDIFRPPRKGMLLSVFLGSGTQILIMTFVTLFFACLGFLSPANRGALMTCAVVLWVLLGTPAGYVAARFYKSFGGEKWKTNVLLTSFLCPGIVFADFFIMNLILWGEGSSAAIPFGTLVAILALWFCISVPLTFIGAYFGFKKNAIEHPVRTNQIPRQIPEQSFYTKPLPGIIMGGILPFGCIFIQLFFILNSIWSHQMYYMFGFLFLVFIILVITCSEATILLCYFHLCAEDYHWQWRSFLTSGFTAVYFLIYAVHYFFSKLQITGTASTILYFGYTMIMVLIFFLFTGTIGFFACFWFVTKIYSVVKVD
# UniProt Q9NX61: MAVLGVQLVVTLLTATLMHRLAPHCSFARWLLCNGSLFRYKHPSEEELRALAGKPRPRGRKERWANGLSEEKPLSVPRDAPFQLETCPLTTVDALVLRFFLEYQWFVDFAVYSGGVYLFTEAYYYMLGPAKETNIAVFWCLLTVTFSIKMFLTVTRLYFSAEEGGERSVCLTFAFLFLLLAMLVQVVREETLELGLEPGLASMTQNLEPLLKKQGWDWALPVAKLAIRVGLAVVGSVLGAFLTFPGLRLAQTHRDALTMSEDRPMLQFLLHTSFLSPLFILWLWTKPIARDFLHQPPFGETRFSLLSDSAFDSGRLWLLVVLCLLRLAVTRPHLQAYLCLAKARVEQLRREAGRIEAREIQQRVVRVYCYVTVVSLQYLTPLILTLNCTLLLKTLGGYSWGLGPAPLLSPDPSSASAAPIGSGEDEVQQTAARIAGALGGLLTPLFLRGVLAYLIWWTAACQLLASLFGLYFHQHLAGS
# Columns and labels:
# Test in all cases: log2 fold change, soluble protein after heating vs DMSO (PISA); higher = thermal stabilisation; K562 lysate, 10 uM; active = over 0.2 and 3.5 SD of the protein, either way, in both replicates (recomputed)
# [1] = compound: NCC(=O)Nc1ccc(-n2nc(C(F)(F)F)cc2-c2ccc3c(ccc4ccccc43)c2)cc1
# Summary of the method: (§1)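 K562 pellets were dounce-homogenised in PBS pH 7.4 containing 1 mM MgCl2, and the crude extract, at 1 mg/mL protein, was exposed to 10 μM compound for 30 min. Aliquots were heated for 3 min across 48°C-58°C, pooled, brought to 0.5% NP-40 at 4°C and spun at 21,000xg for 90 min, with the supernatant taken as soluble protein. TMTpro 16plex LC-MS/MS with equalised channel sums quantified that protein. Values are log-two fold changes in thermal stability relative to solvent controls, taken from duplicates.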
# vorinostat = compound: O=C(CCCCCCC(=O)Nc1ccccc1)NO [vorinostat]
# Summary of the method: as §1
# silmitasertib = compound: O=C(O)c1ccc2c(c1)nc(Nc1cccc(Cl)c1)c1ccncc12 [silmitasertib]
# Summary of the method: as §1
# [2] = compound: O=C1NC(=O)C(c2cnc3ccccn23)=C1c1cn2c3c(cc(F)cc13)CN(C(=O)N1CCCCC1)CC2
# Summary of the method: as §1
# entospletinib = compound: c1cn2cc(-c3ccc4cn[nH]c4c3)nc(Nc3ccc(N4CCOCC4)cc3)c2n1 [entospletinib]
# Summary of the method: as §1
Target,log2 fold change [1],log2 fold change (vorinostat),log2 fold change (silmitasertib),log2 fold change [2],log2 fold change (entospletinib)
TIMM23 (UniProt O14925),inactive: -0.002,inactive: 0.069,inactive: -0.016,inactive: -0.012,inactive: 0.008
THNSL1 (UniProt Q8IYQ7),inactive: -0.006,inactive: 0.032,inactive: -0.016,inactive: 0,inactive: 0.025
THAP12 (UniProt O43422),inactive: 0.069,inactive: -0.127,inactive: -0.008,inactive: -0.017,inactive: 0.04
THOC2 (UniProt Q8NI27),inactive: -0.009,inactive: -0.167,inactive: 0.006,inactive: -0.013,inactive: 0.013
TLN2 (UniProt Q9Y4G6),inactive: 0.007,inactive: 0.036,inactive: 0.002,inactive: -0.003,inactive: 0.02
TMED8 (UniProt Q6PL24),inactive: 0.022,inactive: -0.096,inactive: 0.04,inactive: 0.023,inactive: -0.023
TMEM115 (UniProt Q12893),inactive: -0.002,inactive: 0.049,inactive: 0,inactive: -0.011,inactive: -0.087
TK2 isoform 6 (UniProt O00142),inactive: 0.037,inactive: 0.143,inactive: -0.068,inactive: -0.084,inactive: 0.08
TLK1 isoform 2 (UniProt Q9UKI8),inactive: 0.001,active: -0.369,inactive: 0.117,inactive: 0.156,inactive: 0.04
THEM4 (UniProt Q5T1C6),inactive: -0.014,inactive: 0.054,inactive: -0.006,inactive: 0.03,inactive: 0.023
TIMM17A (UniProt Q99595),inactive: 0.021,inactive: 0.162,inactive: 0.036,inactive: 0.012,inactive: -0.019
TMEM160 (UniProt Q9NX00),inactive: 0.045,inactive: 0.125,inactive: 0.015,inactive: -0.013,inactive: 0.099
TJP1 isoform 2 (UniProt Q07157),inactive: 0.029,inactive: 0.041,inactive: -0.035,inactive: -0.023,inactive: -0.043
TMA7 (UniProt Q9Y2S6),inactive: 0.038,inactive: 0.113,inactive: -0.036,inactive: -0.048,inactive: 0.018
TGM2 (UniProt P21980),inactive: 0.018,inactive: -0.069,inactive: 0.019,inactive: 0.001,inactive: 0.02
TMEM165 (UniProt Q9HC07),inactive: -0.024,inactive: 0.197,inactive: -0.013,inactive: -0.034,inactive: -0.001
TLE5 isoform 2 (UniProt Q08117),inactive: -0.031,inactive: 0.117,inactive: -0.043,inactive: -0.008,inactive: 0.009
TMEM185B (UniProt Q9H7F4),inactive: -0.163,inactive: 0.089,inactive: -0.145,inactive: -0.029,inactive: 0.046
TIGAR (UniProt Q9NQ88),inactive: -0.098,inactive: 0.005,inactive: 0.065,inactive: -0.114,inactive: -0.129
TMED1 (UniProt Q13445),inactive: -0.116,inactive: -0.045,inactive: 0.123,inactive: 0.074,inactive: -0.008
THOC7 (UniProt Q6I9Y2),inactive: -0.035,inactive: 0.039,inactive: -0.029,inactive: -0.026,inactive: 0.045
TIMM8A (UniProt O60220),inactive: 0.05,inactive: 0.139,inactive: -0.062,inactive: 0.085,inactive: -0.014
TLCD1 (UniProt Q96CP7),inactive: -0.084,inactive: 0.208,inactive: 0.124,inactive: -0.172,inactive: 0.045
TLE4 isoform 3 (UniProt Q04727),inactive: -0.001,inactive: 0.031,inactive: 0.028,inactive: -0.089,inactive: 0
TIMELESS (UniProt Q9UNS1),inactive: 0,active: -0.412,inactive: 0.018,inactive: 0.062,inactive: 0.017
TGFBR3 (UniProt Q03167),inactive: -0.02,inactive: 0.061,inactive: 0.002,inactive: -0.065,inactive: -0.003

Target,log2 fold change [1],log2 fold change (vorinostat),log2 fold change (silmitasertib),log2 fold change [2],log2 fold change (entospletinib)
TMEM106B (UniProt Q9NUM4),inactive: -0.007,inactive: 0.096,inactive: 0.01,inactive: -0.043,inactive: 0.025
TIMM50 isoform 2 (UniProt Q3ZCQ8),inactive: 0,inactive: 0.049,inactive: 0.023,inactive: -0.013,inactive: -0.008
TIA1 (UniProt P31483),inactive: -0.061,inactive: 0.081,inactive: -0.049,inactive: -0.035,inactive: -0.045
THYN1 (UniProt Q9P016),inactive: -0.016,inactive: -0.258,inactive: 0,inactive: 0,inactive: 0.011
TMCO6 isoform 2 (UniProt Q96DC7),inactive: 0.188,inactive: -0.123,inactive: -0.014,inactive: -0.047,inactive: -0.013
THEMIS2 (UniProt Q5TEJ8),inactive: -0.029,active: -0.315,inactive: 0.069,inactive: 0.059,inactive: -0.007
TIMM10 (UniProt P62072),inactive: -0.067,inactive: 0.057,inactive: 0.008,inactive: 0.033,inactive: -0.095
TMEM177 (UniProt Q53S58),inactive: -0.183,inactive: -0.012,inactive: -0.035,inactive: 0.034,inactive: 0.005
TJP2 isoform 7 (UniProt Q9UDY2),inactive: -0.026,inactive: -0.154,inactive: -0.021,inactive: -0.003,inactive: -0.023
TMEM186 (UniProt Q96B77),inactive: 0.019,inactive: 0.063,inactive: -0.088,inactive: 0.07,inactive: -0.009
THEM6 (UniProt Q8WUY1),inactive: -0.009,inactive: 0.046,inactive: 0.002,inactive: -0.029,inactive: -0.004
TLR9 isoform 4 (UniProt Q9NR96),inactive: -0.002,inactive: -0.023,inactive: 0.134,inactive: 0,inactive: 0.011
TLCD4 (UniProt Q96MV1),inactive: -0.045,inactive: 0.057,inactive: -0.03,inactive: 0.005,inactive: 0.019
TMEM173 (UniProt Q86WV6),inactive: -0.063,inactive: 0.081,inactive: 0.032,inactive: 0.032,inactive: -0.021
THOC5 (UniProt Q13769),inactive: 0.012,inactive: -0.077,inactive: 0.011,inactive: 0.008,inactive: -0.009
TMEM120A (UniProt Q9BXJ8),inactive: 0.111,inactive: 0.187,inactive: 0.182,inactive: -0.051,inactive: 0.068
THOC1 (UniProt Q96FV9),inactive: 0.009,inactive: -0.2,inactive: 0.022,inactive: -0.016,inactive: -0.006
TGFBRAP1 (UniProt Q8WUH2),inactive: -0.039,active: -0.433,inactive: 0.051,inactive: -0.018,inactive: 0.024
THOC6 (UniProt Q86W42),inactive: 0.068,inactive: 0.051,inactive: 0.025,inactive: 0.03,inactive: 0.006
TIMM9 (UniProt Q9Y5J7),inactive: -0.027,inactive: 0.174,inactive: -0.035,inactive: 0.038,inactive: -0.147
TMBIM6 isoform 2 (UniProt P55061),inactive: -0.066,inactive: 0.112,inactive: 0,inactive: -0.001,inactive: -0.007
TIMM13 (UniProt Q9Y5L4),inactive: -0.082,inactive: 0.065,inactive: 0.026,inactive: 0.03,inactive: -0.05
TM9SF2 (UniProt Q99805),inactive: 0.02,inactive: 0.098,inactive: -0.015,inactive: -0.029,inactive: -0.006
TLE3 isoform 4 (UniProt Q04726),inactive: 0.011,inactive: 0.047,inactive: -0.052,inactive: -0.018,inactive: -0.009
TMEM161A (UniProt Q9NX61),inactive: -0.017,inactive: -0.185,inactive: 0.152,inactive: -0.02,inactive: 0.107
TLN1 (UniProt Q9Y490),inactive: -0.01,inactive: 0.038,inactive: -0.004,inactive: 0.008,inactive: 0.009

# Complete entries as entered above. Order of values: log2 fold change [1]	log2 fold change (vorinostat)	log2 fold change (silmitasertib)	log2 fold change [2]	log2 fold change (entospletinib)
# TLCD1 (UniProt Q96CP7) is listed with inactive: -0.084	inactive: 0.208	inactive: 0.124	inactive: -0.172	inactive: 0.045
# TLCD4 (UniProt Q96MV1) is listed with inactive: -0.045	inactive: 0.057	inactive: -0.03	inactive: 0.005	inactive: 0.019
# TIMELESS (UniProt Q9UNS1) is listed with inactive: 0	active: -0.412	inactive: 0.018	inactive: 0.062	inactive: 0.017
# TLN2 (UniProt Q9Y4G6) is listed with inactive: 0.007	inactive: 0.036	inactive: 0.002	inactive: -0.003	inactive: 0.02

# — the supplement of paper PMC10849652
